{
  "sequences": {"note": "Protein sequences, listed by entry. Tags and fused reporters are not part of them. Residues count along the entry.", "UniProt P22770, whole entry L270T": "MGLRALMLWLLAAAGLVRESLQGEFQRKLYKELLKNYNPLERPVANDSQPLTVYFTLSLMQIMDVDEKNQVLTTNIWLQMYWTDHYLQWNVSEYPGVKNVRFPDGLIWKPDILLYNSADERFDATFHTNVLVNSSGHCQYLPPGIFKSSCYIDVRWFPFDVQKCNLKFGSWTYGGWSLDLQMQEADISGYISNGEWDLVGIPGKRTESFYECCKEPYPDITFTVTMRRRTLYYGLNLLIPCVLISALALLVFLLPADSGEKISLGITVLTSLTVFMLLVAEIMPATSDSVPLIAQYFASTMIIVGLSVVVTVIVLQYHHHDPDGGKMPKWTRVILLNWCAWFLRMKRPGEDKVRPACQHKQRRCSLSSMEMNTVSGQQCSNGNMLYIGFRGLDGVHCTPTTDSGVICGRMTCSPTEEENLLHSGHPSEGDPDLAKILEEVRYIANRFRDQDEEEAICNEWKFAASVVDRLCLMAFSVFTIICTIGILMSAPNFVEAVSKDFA", "UniProt Q05941, 23-502": "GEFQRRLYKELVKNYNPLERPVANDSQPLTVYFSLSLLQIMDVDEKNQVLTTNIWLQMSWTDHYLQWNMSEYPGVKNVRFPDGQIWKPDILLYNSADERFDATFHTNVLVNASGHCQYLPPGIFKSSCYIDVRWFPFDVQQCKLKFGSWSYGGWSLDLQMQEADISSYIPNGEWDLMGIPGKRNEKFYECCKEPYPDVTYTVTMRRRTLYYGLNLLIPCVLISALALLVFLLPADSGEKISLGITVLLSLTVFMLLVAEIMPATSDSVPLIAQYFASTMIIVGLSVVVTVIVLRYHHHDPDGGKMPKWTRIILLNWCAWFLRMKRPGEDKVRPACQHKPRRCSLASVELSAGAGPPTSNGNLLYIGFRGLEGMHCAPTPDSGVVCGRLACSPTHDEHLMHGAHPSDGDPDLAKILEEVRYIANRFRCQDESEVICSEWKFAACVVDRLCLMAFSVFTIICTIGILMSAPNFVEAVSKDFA", "UniProt Q05941, 23-502 T267S": "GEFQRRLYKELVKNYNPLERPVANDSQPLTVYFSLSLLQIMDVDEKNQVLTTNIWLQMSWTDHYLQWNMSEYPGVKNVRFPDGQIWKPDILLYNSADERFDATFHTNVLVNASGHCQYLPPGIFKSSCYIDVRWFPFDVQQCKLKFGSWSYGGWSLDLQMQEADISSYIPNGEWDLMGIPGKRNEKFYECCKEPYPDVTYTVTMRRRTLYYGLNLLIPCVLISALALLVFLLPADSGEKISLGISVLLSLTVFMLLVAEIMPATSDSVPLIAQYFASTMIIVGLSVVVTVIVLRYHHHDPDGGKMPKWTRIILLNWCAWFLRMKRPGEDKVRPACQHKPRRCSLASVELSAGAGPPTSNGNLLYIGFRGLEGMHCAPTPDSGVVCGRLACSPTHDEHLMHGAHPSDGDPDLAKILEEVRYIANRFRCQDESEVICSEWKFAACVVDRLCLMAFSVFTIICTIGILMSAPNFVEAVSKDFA"},
  "source": "patent US20050170360A1",
  "about": "“Variant neuronal nicotinic alpha-7 receptor and methods of use” (priority 2004, published 2005)",
  "key": {"L247T mutant": {"molecular_target": "L247T mutant (UniProt P22770, L270T, species not given)", "format": "cell-based"}, "wild-type α7 nAChR": {"molecular_target": "wild-type α7 nAChR (Rattus norvegicus, UniProt Q05941)", "assay": "Two-electrode voltage-clamp recording of Xenopus oocytes expressing wild-type α7"}, "rat α7 TM2 T6'S": {"molecular_target": "rat α7 TM2 T6'S (Rattus norvegicus, UniProt Q05941, T267S)", "assay": "Two-electrode voltage-clamp recording of Xenopus oocytes expressing α7 TM2 T6'S mutant"}},
  "note": "At least one structure is not confirmed: it was looked up by name or label, or the drawing left a doubt.",
  "data": [
    {"molecule": "CN1CCc2cc3c(cc2[C@H]1[C@@H]1OC(=O)c2c1ccc1c2OCO1)OCO3", "note": "[Bicuculline]", "values": [
      {"measurement": "type of activity (agonist / antagonist)", "setting": "L247T mutant", "value": "agonist"},
      {"measurement": "type of activity (agonist / antagonist / potentiation)", "setting": "wild-type α7 nAChR", "value": "antagonist"},
      {"measurement": "type of activity (agonist / antagonist / potentiation)", "setting": "rat α7 TM2 T6'S", "value": "antagonist"}
    ]}
  ]
}
